The list shows a part of the results.

Sequences of proteins named here, by UniProt entry; tags and fusion partners are left off.
UniProt Q0JBA9, entry or part of it: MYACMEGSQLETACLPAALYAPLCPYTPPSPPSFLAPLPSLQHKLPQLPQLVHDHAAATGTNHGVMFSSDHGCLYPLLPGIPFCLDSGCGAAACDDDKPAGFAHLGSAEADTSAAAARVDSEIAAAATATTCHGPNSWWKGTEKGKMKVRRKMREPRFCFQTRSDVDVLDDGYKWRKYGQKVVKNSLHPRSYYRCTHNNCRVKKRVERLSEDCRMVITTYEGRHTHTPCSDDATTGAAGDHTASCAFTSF

The target of the assay is OsWRKY34 (Oryza sativa, UniProt Q0JBA9 1-250). As to the kind of experiment: protein-binding microarray (RPBM); PBS, 2% BSA, 51.3 ng/ul salmon testes DNA, 50 uM zinc acetate, 200 nM TF, 25 C, 1 h; high values mean tight binding. Conditions: protein: recombinant; tags: N-terminal polyhistidine and DsRed monomer fusion (pET32a); label: CyDye5-dUTP incorporated in the synthesized complementary strand; 3' TTTTT single-stranded linker to array surface; dsDNA, one strand shown. A digest of the protocol: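 Binding signal is reported as fluorescence intensity per feature (arbitrary units) from an Axon 4000B scanner. Incubation used 200 nM of each Ni–NTA-purified, N-terminally polyhistidine- and DsRed-fused transcription factor from E. coli BL21-CodonPlus on a double-stranded custom Agilent array for 1 h at 25 °C, with 50 µM zinc acetate in the buffer, followed by washing.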
Take “TTCTAGTTACTTCGTCTCCTTACACCTCTTGCAGAAAACTCGGAGTCACCTAGTGCAG”: the binding signal was 8390 fluorescence intensity (a.u.).

In the case of “GGTTCTGCTTGGCGCATATGTTCTGCATGAATACAATACGCGGAGTCACCTAGTGCAG”, the binding signal is 8580 fluorescence intensity (a.u.). In the case of “GAATGGTCAAACACGTACTAAAAAAGTCAACGGTGTCAAACGGAGTCACCTAGTGCAG” it was 17500 fluorescence intensity (a.u.); in that of “ATAACATCTGCTGCATTCATTACCTATACTTTGTAGATACCGGAGTCACCTAGTGCAG”, 13400 fluorescence intensity (a.u.); in that of “GGGAAACCAGGCTATCCTCTTGGTCACTCTGCACCAATTCCGGAGTCACCTAGTGCAG”, 10500 fluorescence intensity (a.u.). Regarding “TGTTTTGACTTTTGACCAATCCAATCCAAACATTAGTTCGCGGAGTCACCTAGTGCAG”, the binding signal is 9670 fluorescence intensity (a.u.). In the case of “CGGGGTTAATTTCAGTTGGTTTTTACTGACGACGTGCTACCGGAGTCACCTAGTGCAG” it was 8870 fluorescence intensity (a.u.); in that of “TACTTACCCCTATCTTCATCATCGTCATCTGTATAACAAACGGAGTCACCTAGTGCAG”, 9690 fluorescence intensity (a.u.). In the case of “ATGGTGGGTCTTTTGCTTCTATCTTCTTCTATGCATGAAACGGAGTCACCTAGTGCAG” it was 10400 fluorescence intensity (a.u.); in that of “TGTTCTACTTGGCTGTCTCATACTTTTTTTATTTCTCTCTCGGAGTCACCTAGTGCAG”, 11200 fluorescence intensity (a.u.). Regarding “CTCGCTAGTCGCCGGTTGTTTGCCGCCTCGGCCCGATTCCCGGAGTCACCTAGTGCAG”, the binding signal was 8670 fluorescence intensity (a.u.). In the case of “ACTTACATGCGGGCCCCACATATATATATATATAATTTTTCGGAGTCACCTAGTGCAG” it was 14400 fluorescence intensity (a.u.); in that of “GCTGACACACATGGGCCGTATTCTGTCCTTGGGCTTATATCGGAGTCACCTAGTGCAG”, 9730 fluorescence intensity (a.u.); in that of “AGATTTGGTTTTTTAGGCCGGTTTTTCGTTTTGTCGCCCTCGGAGTCACCTAGTGCAG”, 8750 fluorescence intensity (a.u.).

For “GCTCTCTGATTCTTTATTTCTTATGAACACCGTAGAAATACGGAGTCACCTAGTGCAG”, the binding signal is 8220 fluorescence intensity (a.u.). In the case of “TCTCTCGCGTCTCGCGTCTCGACCTCCTTTCCCATTCGCTCGGAGTCACCTAGTGCAG” it was 10400 fluorescence intensity (a.u.); in that of “ATTTGTATTTGTTTTTTTATCCGAGCTATTCGTATTTATTCGGAGTCACCTAGTGCAG”, 9980 fluorescence intensity (a.u.); in that of “CCACCTCCTGTCTCGTCGCACGCGCACGCGCACGCCCTATCGGAGTCACCTAGTGCAG”, 8390 fluorescence intensity (a.u.). In the case of “CCAGCCTGCTGCTCCATTCCTTTCTTTTCTTTTCTTTTCCCGGAGTCACCTAGTGCAG” it was 8260 fluorescence intensity (a.u.); in that of “GTGAGCTTCTGTGTTTGTTCTTTCTCGAATTATTTTTTTACGGAGTCACCTAGTGCAG”, 13700 fluorescence intensity (a.u.). In the case of “CCCATCCTGGCCAAGACCACACCTCGCCGTCGCCACCACCCGGAGTCACCTAGTGCAG” it was 10100 fluorescence intensity (a.u.). As for “TGGGCCCTTTTCTTTGCCCTGCCCAGACTGGTTCATGTATCGGAGTCACCTAGTGCAG”, the binding signal is 10100 fluorescence intensity (a.u.). In the case of “TTTTTCTTCTTGTTTGTCGTTTTCTTGAACTTGGGGCCATCGGAGTCACCTAGTGCAG” it was 9550 fluorescence intensity (a.u.).

As to “CCGTGCCCACCTGAGCTCGCTTCGCCGCCATTGGCAGCCTCGGAGTCACCTAGTGCAG”, the binding signal is 9100 fluorescence intensity (a.u.). In the case of “TCTAATCTCTTGGTGGACGTCCACCCGTTTTTTCGTGTCACGGAGTCACCTAGTGCAG” it was 8070 fluorescence intensity (a.u.); in that of “CGTATCGGCCCAGCTTCACTCATACCGCGATAAGCTAAGACGGAGTCACCTAGTGCAG”, 8300 fluorescence intensity (a.u.). In the case of “GCTTATAGCTCACCATTATCCTTGCTCTTATGTACATATTCGGAGTCACCTAGTGCAG” it was 9280 fluorescence intensity (a.u.). In the case of “TGGATATCCACAGTTTGTCCTTTTATTTGGATTGTTTATCCGGAGTCACCTAGTGCAG” it was 8400 fluorescence intensity (a.u.). Consider “ACCTAATGTCTCAATGTCCTTATAAGCATTGTTTTGAGGACGGAGTCACCTAGTGCAG”, for which the binding signal is 8230 fluorescence intensity (a.u.).

Regarding “AGGTGTCTATCTTGCTGTGGCCATTAATTGGAACCAAAATCGGAGTCACCTAGTGCAG”, the binding signal is 9240 fluorescence intensity (a.u.). In the case of “GCCAGTATTTTCAGAGATATCCTTTTGCAATTCGGTCCTTCGGAGTCACCTAGTGCAG” it was 8560 fluorescence intensity (a.u.). Consider “GGCGCCATTTTGCTTCTCTTGCCGCTGGATTCTTGATTTTCGGAGTCACCTAGTGCAG”, for which the binding signal is 10900 fluorescence intensity (a.u.). In the case of “ACATGAGGCAGCTTTCCATATCACCGTATCCATAGCCCATCGGAGTCACCTAGTGCAG” it was 8060 fluorescence intensity (a.u.); in that of “TTTGTGTTATTCTACTTACAACCTCCGTGTCTTTATGTGACGGAGTCACCTAGTGCAG”, 8580 fluorescence intensity (a.u.). In the case of “GCGATCTTCGCGGCTTCACCATCATACCTGCAACTGCAACCGGAGTCACCTAGTGCAG” it was 8220 fluorescence intensity (a.u.); in that of “ATCAAACGTTCGATGTGACCCCAAAATTTTTCTATTCGCGCGGAGTCACCTAGTGCAG”, 8360 fluorescence intensity (a.u.); in that of “GAGGCGGGGAGGGAGGCAGGTTCGCGCGGATCTCGCGATGCGGAGTCACCTAGTGCAG”, 10900 fluorescence intensity (a.u.). In the case of “CCGGTAGCTTGCTTGTGCTTCGTATCCATGGATCCTCACCCGGAGTCACCTAGTGCAG” it was 8320 fluorescence intensity (a.u.); in that of “ATAGCAACATCGTCGACCTGCTCTGCTGCATCTCTAGCCACGGAGTCACCTAGTGCAG”, 8270 fluorescence intensity (a.u.); in that of “GCTTTTGACCAACCGCTCCGCACTAGCGGCCGCGCCGCGCCGGAGTCACCTAGTGCAG”, 9770 fluorescence intensity (a.u.).

“TTGTTTCGTATGTCTCTAGTGTGACTATTGCATGTACTTGCGGAGTCACCTAGTGCAG”: the binding signal was 9180 fluorescence intensity (a.u.). In the case of “CGCATCCAGCTCATCTCCGTCGGCTGTCGCCCGTCTTCACCGGAGTCACCTAGTGCAG” it was 11700 fluorescence intensity (a.u.). In the case of “GCCATTCTCTTCTTCTTCTTCTTCTTCTTCTTCTTCTTCTCGGAGTCACCTAGTGCAG” it was 11300 fluorescence intensity (a.u.); in that of “CGCCCGCGCGCCACCTGATTCGCATTCGCTCCATCCGCTTCGGAGTCACCTAGTGCAG”, 9730 fluorescence intensity (a.u.).

Consider “CGACTGTGAATTGCCGTACACCTCCACTTCGCCAACTATCCGGAGTCACCTAGTGCAG”, for which the binding signal was 9080 fluorescence intensity (a.u.). In the case of “TGTTTGCATGCTAAAGCTTTCATCTCTTCGTCGTCATCAGCGGAGTCACCTAGTGCAG” it was 8080 fluorescence intensity (a.u.). In the case of “TTATGCTCTTTAGTTTTTCTGCGCACGTTCTCCGATCAATCGGAGTCACCTAGTGCAG” it was 8060 fluorescence intensity (a.u.). In the case of “GTCTCGTTCTCGCCGCCTATATGTAGCGCCACCGATTCCCCGGAGTCACCTAGTGCAG” it was 9380 fluorescence intensity (a.u.); in that of “TTACACGTGTACGAGTAGGCCGTCGCTCTCTCTATCATCCCGGAGTCACCTAGTGCAG”, 8150 fluorescence intensity (a.u.); in that of “AGCTCTTTCTTGATTAGATCATCTCATGCTTTGCCCAGTCCGGAGTCACCTAGTGCAG”, 8400 fluorescence intensity (a.u.). For “CCAGCATCATCACCGCATCACGTCCTCGTCGGCCTCCACGCGGAGTCACCTAGTGCAG”, the binding signal is 11600 fluorescence intensity (a.u.). In the case of “CTCTTTGTGTTCAAAACCTTGTTTTCCTGTAGTCTTCTCTCGGAGTCACCTAGTGCAG”, the binding signal is 8180 fluorescence intensity (a.u.).

As to “CCAGTCAATTTCCCCACGTGCCATCTCGCTGCATCCGCCGCGGAGTCACCTAGTGCAG”, the binding signal was 10500 fluorescence intensity (a.u.). For “CCGCCGGGCTTCGCCATGTACGGTCACCGCGGGTAAGCCACGGAGTCACCTAGTGCAG”, the binding signal was 8040 fluorescence intensity (a.u.).

For the origin of these results see paper PMC7819943, “Rice protein-binding microarrays: a tool to detect cis-acting elements near promoter regions in rice”.
